PubChem BioAssay AID1259405, NCATS, 2018
This is an unselected part of about 50,000 deposited reagents. In the full data, about 4,000 (8%) were called active. 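Mouse siRNA library applied to hamster cells; one well for each siRNA.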 Unmarked entries are inactive. The numbers tell different reagents against one gene apart.

Test: 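Mouse-designed siRNAs used to find CHO productivity engineering targets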 (primary screen)
System: Chinese hamster CHO-K1 ovary cells with stable secreted eGFP expression
Reagent: single siRNA against mouse genes, 0.8 pmol siRNA per well (2 µl of 400 nM stock)
Duration: 3 days
Measured: 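Percent of the per-plate non-targeting control median for intracellular GFP per well by laser scanning cytometry and for cell viability by ATP luminescence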
Direction: GFP, % of control: higher = more GFP per well, higher productivity; viability (ATP), % of control: higher = more viable cells (more ATP)
Hit rule: 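Called active when intracellular GFP, relative to negative control, is at or above 120%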

| target | reagent | GFP, % of control | viability (ATP), % of control |
| --- | --- | --- | --- |
| Aco1 (aconitase 1) | 1 | 103 | 106 |
| Aco1 (aconitase 1) | 2 | 64.2 | 80.6 |
| Bad (BCL2-associated agonist of cell death) | 1 | 65.1 | 81.6 |
| Bad (BCL2-associated agonist of cell death) | 2 | 92.4 | 97.4 |
| Xpo4 (exportin 4) | 1 | 45.5 | 71.7 |
| Xpo4 (exportin 4) | 2 | 73.1 | 76.4 |
| Xpo4 (exportin 4) | 3 | 56.4 | 47.1 |
| Aacs (acetoacetyl-CoA synthetase) | 1 | 46.3 | 93.8 |
| Aacs (acetoacetyl-CoA synthetase) | 2 | 104 | 97.6 |
| Aacs (acetoacetyl-CoA synthetase) | 3 | 113 | 111 |
| Sec23ip (Sec23 interacting protein) | 1 | 109 | 106 |
| Sec23ip (Sec23 interacting protein) | 2 | 80.7 | 77.3 |
| Sec23ip (Sec23 interacting protein) | 3 | 92.7 | 106 |
| Akp3 (alkaline phosphatase 3, intestine, not Mn requiring) | 1 | 53.4 | 103 |
| Akp3 (alkaline phosphatase 3, intestine, not Mn requiring) | 2 | 76.5 | 71.8 |
| Akp3 (alkaline phosphatase 3, intestine, not Mn requiring) | 3 | 47.4 | 60.9 |
| Rnf20 (ring finger protein 20) | 1 | 72.6 | 67.3 |
| Rnf20 (ring finger protein 20) | 2 | 123 (active) | 74.3 |
| Rnf20 (ring finger protein 20) | 3 | 70.1 | 58.1 |
| Pdcd4 (programmed cell death 4) | 1 | 88 | 92.1 |
| Pdcd4 (programmed cell death 4) | 2 | 86.8 | 89.2 |
| Pdcd4 (programmed cell death 4) | 3 | 85.1 | 66.4 |
| Gdap10 (ganglioside-induced differentiation-associated-protein 10) | 1 | 45.6 | 79.6 |
| Gdap10 (ganglioside-induced differentiation-associated-protein 10) | 2 | 33.9 | 61.5 |
| Gdap10 (ganglioside-induced differentiation-associated-protein 10) | 3 | 57.5 | 42.1 |
| Srms | 1 | 58.9 | 79.5 |
| Cdc42ep3 (CDC42 effector protein 3) | 1 | 80.4 | 93.2 |
| Cdc42ep3 (CDC42 effector protein 3) | 2 | 93.2 | 60.6 |
| Cdc42ep3 (CDC42 effector protein 3) | 3 | 60.4 | 72.9 |
| Rpgrip1l (Rpgrip1-like) | 1 | 99.3 | 89.4 |
| Rpgrip1l (Rpgrip1-like) | 2 | 67 | 83.6 |
| Rpgrip1l (Rpgrip1-like) | 3 | 87.6 | 81.4 |
| Amhr2 (anti-Mullerian hormone type 2 receptor) | 1 | 94.1 | 92.1 |
| Eif3j1 (eukaryotic translation initiation factor 3, subunit J1) | 1 | 64.7 | 80.3 |
| Eif3j1 (eukaryotic translation initiation factor 3, subunit J1) | 2 | 57 | 66.8 |
| Eif3j1 (eukaryotic translation initiation factor 3, subunit J1) | 3 | 103 | 84.7 |
| Or4f60 (olfactory receptor family 4 subfamily F member 60) | 1 | 103 | 89.5 |
| Or4f60 (olfactory receptor family 4 subfamily F member 60) | 2 | 107 | 76.6 |
| Or4f60 (olfactory receptor family 4 subfamily F member 60) | 3 | 65.3 | 78.9 |
| Sec14l4 (SEC14-like lipid binding 4) | 1 | 79.2 | 89.5 |
| Sec14l4 (SEC14-like lipid binding 4) | 2 | 88.8 | 92.9 |
| Sec14l4 (SEC14-like lipid binding 4) | 3 | 109 | 78.7 |
| Gmppa (GDP-mannose pyrophosphorylase A) | 1 | 81.9 | 105 |
| Gmppa (GDP-mannose pyrophosphorylase A) | 2 | 42.4 | 64.7 |
| Gmppa (GDP-mannose pyrophosphorylase A) | 3 | 48.7 | 64.8 |
| Ap5s1 (adaptor-related protein 5 complex, sigma 1 subunit) | 1 | 50 | 58.6 |
| Ap5s1 (adaptor-related protein 5 complex, sigma 1 subunit) | 2 | 51.2 | 41.7 |
| Ap5s1 (adaptor-related protein 5 complex, sigma 1 subunit) | 3 | 77.3 | 87.4 |
| Or9i1 (olfactory receptor family 9 subfamily I member 1) | 1 | 32.1 | 30.4 |
| Or9i1 (olfactory receptor family 9 subfamily I member 1) | 2 | 74.4 | 96.5 |
| Or9i1 (olfactory receptor family 9 subfamily I member 1) | 3 | 44.2 | 63.2 |
| Bub1b (BUB1B, mitotic checkpoint serine/threonine kinase) | 1 | 109 | 64.1 |
| Hars2 (histidyl-tRNA synthetase 2) | 1 | 60.4 | 75.1 |
| Hars2 (histidyl-tRNA synthetase 2) | 2 | 65.6 | 68.5 |
| Hars2 (histidyl-tRNA synthetase 2) | 3 | 80.2 | 86.9 |
| Lins1 (lines homolog 1) | 1 | 65.9 | 47.2 |
| Lins1 (lines homolog 1) | 2 | 78.4 | 81.8 |
| Lins1 (lines homolog 1) | 3 | 108 | 88.8 |
| Hps1 (HPS1, biogenesis of lysosomal organelles complex 3 subunit 1) | 1 | 75.9 | 80 |
| Hps1 (HPS1, biogenesis of lysosomal organelles complex 3 subunit 1) | 2 | 105 | 110 |
| Hps1 (HPS1, biogenesis of lysosomal organelles complex 3 subunit 1) | 3 | 91.6 | 91.6 |
| Trmt44 (tRNA methyltransferase 44) | 1 | 85.4 | 75.7 |
| Trmt44 (tRNA methyltransferase 44) | 2 | 39 | 52.1 |
| Trmt44 (tRNA methyltransferase 44) | 3 | 96.1 | 101 |
| Sstr1 (somatostatin receptor 1) | 1 | 81.2 | 56 |
| Sstr1 (somatostatin receptor 1) | 2 | 150 (active) | 88.7 |
| Sstr1 (somatostatin receptor 1) | 3 | 115 | 87.5 |
| Paip2b (poly(A) binding protein interacting protein 2B) | 1 | 54.9 | 79.6 |
| Paip2b (poly(A) binding protein interacting protein 2B) | 2 | 44.4 | 83.9 |
| Paip2b (poly(A) binding protein interacting protein 2B) | 3 | 63.6 | 102 |
| Eps8l3 (EPS8-like 3) | 1 | 91.8 | 68.1 |
| Eps8l3 (EPS8-like 3) | 2 | 125 (active) | 75.3 |
| Eps8l3 (EPS8-like 3) | 3 | 102 | 95.2 |
| Gin1 (gypsy retrotransposon integrase 1) | 1 | 70.5 | 70.2 |
| Gin1 (gypsy retrotransposon integrase 1) | 2 | 67.2 | 66.3 |
| Gin1 (gypsy retrotransposon integrase 1) | 3 | 89.3 | 97.8 |
| Wee2 (WEE1 homolog 2 (S. pombe)) | 1 | 115 | 92.1 |
| Wee2 (WEE1 homolog 2 (S. pombe)) | 2 | 64.1 | 72.9 |
| Wee2 (WEE1 homolog 2 (S. pombe)) | 3 | 67.2 | 71.9 |
| Lrrn4cl (LRRN4 C-terminal like) | 1 | 37.2 | 46 |
| Lrrn4cl (LRRN4 C-terminal like) | 2 | 63.1 | 72.7 |
| Lrrn4cl (LRRN4 C-terminal like) | 3 | 60.8 | 71.4 |
| Niban2 (niban apoptosis regulator 2) | 1 | 141 (active) | 82.4 |
| Niban2 (niban apoptosis regulator 2) | 2 | 57.5 | 75.9 |
| Niban2 (niban apoptosis regulator 2) | 3 | 96 | 103 |
| Nes (nestin) | 1 | 58.6 | 54.2 |
| Nes (nestin) | 2 | 61.7 | 67.6 |
| Eif2s1 (eukaryotic translation initiation factor 2, subunit 1 alpha) | 1 | 71.8 | 59.4 |
| Eif2s1 (eukaryotic translation initiation factor 2, subunit 1 alpha) | 2 | 32.8 | 38.1 |
| Eif2s1 (eukaryotic translation initiation factor 2, subunit 1 alpha) | 3 | 85.7 | 82.6 |
| Vstm2a (V-set and transmembrane domain containing 2A) | 1 | 89.1 | 85.3 |
| Vstm2a (V-set and transmembrane domain containing 2A) | 2 | 67.8 | 93 |
| Vstm2a (V-set and transmembrane domain containing 2A) | 3 | 83.2 | 91.8 |
| Pdzd7 (PDZ domain containing 7) | 1 | 90.8 | 78.4 |
| Pdzd7 (PDZ domain containing 7) | 2 | 81.5 | 96 |
| Pdzd7 (PDZ domain containing 7) | 3 | 91 | 100 |
| Mcoln2 (mucolipin 2) | 1 | 105 | 26 |
| Mcoln2 (mucolipin 2) | 2 | 70.7 | 46.2 |
| Mcoln2 (mucolipin 2) | 3 | 58.5 | 89.6 |
| Cox20 (cytochrome c oxidase assembly protein 20) | 1 | 67 | 71.5 |
| Cox20 (cytochrome c oxidase assembly protein 20) | 2 | 28.4 | 42.7 |
| Cox20 (cytochrome c oxidase assembly protein 20) | 3 | 67 | 67.5 |
| Igfn1 | 1 | 60.7 | 66.3 |
| Igfn1 | 2 | 88.3 | 84.6 |
| Igfn1 | 3 | 73.4 | 69.6 |
| Mrps6 (mitochondrial ribosomal protein S6) | 1 | 81 | 89.6 |
| Mrps6 (mitochondrial ribosomal protein S6) | 2 | 45.2 | 88.9 |
| Mrps6 (mitochondrial ribosomal protein S6) | 3 | 56.1 | 79.1 |

Entries listed so far whose target name starts with S or s:
| target | reagent | GFP, % of control | viability (ATP), % of control |
| --- | --- | --- | --- |
| Sec23ip (Sec23 interacting protein) | 1 | 109 | 106 |
| Sec23ip (Sec23 interacting protein) | 2 | 80.7 | 77.3 |
| Sec23ip (Sec23 interacting protein) | 3 | 92.7 | 106 |
| Srms | 1 | 58.9 | 79.5 |
| Sec14l4 (SEC14-like lipid binding 4) | 1 | 79.2 | 89.5 |
| Sec14l4 (SEC14-like lipid binding 4) | 2 | 88.8 | 92.9 |
| Sec14l4 (SEC14-like lipid binding 4) | 3 | 109 | 78.7 |
| Sstr1 (somatostatin receptor 1) | 1 | 81.2 | 56 |
| Sstr1 (somatostatin receptor 1) | 2 | 150 (active) | 88.7 |
| Sstr1 (somatostatin receptor 1) | 3 | 115 | 87.5 |
